Experimental data as given in PubChem BioAssay AID330 (DTP/NCI, 2004).
The list does not hold the whole screen: it is rich in T/C values a quarter to a half above the control, in often repeated tests (any T/C) and in doses without a T/C. Other doses and runs of a compound stand elsewhere. T/C: endpoint of the treated group in % of that of the vehicle group. Some entries give survivors of the animals treated and no T/C: the source holds a T/C of zero for them, seemingly a mark for toxic or unscored doses. Some doses without a T/C left all or most animals alive at the check, yet need not have been tolerated: survival well below the control is almost never listed, so the zero probably covers shortened survival too. Counts of survivors are from the toxicity check (mostly the fifth day) where no day follows; animals may have died later. Schedule codes are those of the source, read here as Q, the interval in days (D) or hours (H), X, the number of doses. Some entries hold several experiments; their values stand side by side, smallest first. For survival time, this PubChem deposit counts one and a half times the control or more as active, and values a quarter to a half above the control carry no call in these data; other NCI protocols may use other cut-offs. Brackets with × count equal records among those shown. Some T/C values are followed by the survivors on the day toxicity was checked, most often the fifth; without a count, all were alive then.

System: P388 leukemia ip, CD2F1 mice, survival T/C
Assay: NCI In Vivo Anticancer Drug Screen. Data for tumor model P388 Leukemia (intraperitoneal) in CD2F1 (CDF1) mice
Details: T/C endpoint: median survival time, higher T/C = longer survival

SMILES: CC(=O)OCc1cc(=O)n(C)c2c3c4c(cc12)c(C)cc(=O)n4CO3
- T/C (dose: 6.25 mg/kg/injection, schedule: Q03HX015 (ip), vehicle: Klucel (hydroxypropylcellulose) (HPC)): 133 % of control
- T/C (dose: 12.5 mg/kg/injection, schedule: Q01DX005 (ip), vehicle: Klucel (hydroxypropylcellulose) (HPC)): 128 % of control
- T/C (dose: 12.5 mg/kg/injection, schedule: Q03HX015 (ip), vehicle: Klucel (hydroxypropylcellulose) (HPC)): 137 % of control
- T/C (dose: 12.5 mg/kg/injection, schedule: Q06HX010 (ip), vehicle: Klucel (hydroxypropylcellulose) (HPC)): 131 % of control
- T/C (dose: 25.0 mg/kg/injection, schedule: Q01DX005 (ip), vehicle: Klucel (hydroxypropylcellulose) (HPC)): 134 % of control
- T/C (dose: 25.0 mg/kg/injection, schedule: Q01DX009 (ip), vehicle: Klucel (hydroxypropylcellulose) (HPC)): 134 % of control
- T/C (dose: 50.0 mg/kg/injection, schedule: Q01DX005 (ip), vehicle: Klucel (hydroxypropylcellulose) (HPC)): 142 % of control
- survivor count (dose: 50.0 mg/kg/injection, schedule: Q03HX015 (ip), vehicle: Klucel (hydroxypropylcellulose) (HPC)): 3 of 8
- T/C (dose: 50.0 mg/kg/injection, schedule: Q04DX002 (ip), vehicle: Klucel (hydroxypropylcellulose) (HPC)): 134 % of control
- T/C (dose: 100.0 mg/kg/injection, schedule: Q01DX001 (ip), vehicle: Klucel (hydroxypropylcellulose) (HPC)): 131 and 137 % of control (2×)
- survivor count (dose: 100.0 mg/kg/injection, schedule: Q01DX005 (ip), vehicle: Klucel (hydroxypropylcellulose) (HPC)): 6 of 8
- survivor count (dose: 100.0 mg/kg/injection, schedule: Q03HX015 (ip), vehicle: Klucel (hydroxypropylcellulose) (HPC)): 0 of 8
- T/C (dose: 100.0 mg/kg/injection, schedule: Q04DX002 (ip), vehicle: Klucel (hydroxypropylcellulose) (HPC)): 146 % of control
- survivor count (dose: 100.0 mg/kg/injection, schedule: Q06HX010 (ip), vehicle: Klucel (hydroxypropylcellulose) (HPC)): 0 of 8
- T/C (dose: 200.0 mg/kg/injection, schedule: Q01DX001 (ip), vehicle: Klucel (hydroxypropylcellulose) (HPC)): 135 and 146 % of control
- survivor count (dose: 200.0 mg/kg/injection, schedule: Q01DX005 (ip), vehicle: Klucel (hydroxypropylcellulose) (HPC)): 0 of 8
- survivor count (dose: 200.0 mg/kg/injection, schedule: Q01DX009 (ip), vehicle: Klucel (hydroxypropylcellulose) (HPC)): 0 of 8
- survivor count (dose: 200.0 mg/kg/injection, schedule: Q06HX010 (ip), vehicle: Klucel (hydroxypropylcellulose) (HPC)): 0 of 8
- T/C (dose: 400.0 mg/kg/injection, schedule: Q01DX001 (ip), vehicle: Klucel (hydroxypropylcellulose) (HPC)): 137 % of control [4 of 6 alive]
- survivor count (dose: 400.0 mg/kg/injection, schedule: Q04DX002 (ip), vehicle: Klucel (hydroxypropylcellulose) (HPC)): 8 of 8
- survivor count (dose: 600.0 mg/kg/injection, schedule: Q01DX001 (ip), vehicle: Klucel (hydroxypropylcellulose) (HPC)): 0 of 6

SMILES: Cc1cc(C2=NCC(C)S2)ccc1OCCSCCOc1ccc(C2=NCC(C)S2)cc1C (centres undefined)
- survivor count (dose: 50.0 mg/kg/injection, schedule: Q01DX009 (ip), vehicle: saline with Tween-80): 6 of 6

SMILES: [CH3][Sn]([Cl])([Cl])[c]1ccccc1
- survivor count (dose: 12.5 mg/kg/injection, schedule: Q04DX003 (ip), vehicle: saline): 3 of 6
- survivor count (dose: 25.0 mg/kg/injection, schedule: Q04DX003 (ip), vehicle: saline): 0 of 6
- survivor count (dose: 100.0 mg/kg/injection, schedule: Q04DX003 (ip), vehicle: saline with Tween-80): 0 of 6
- survivor count (dose: 200.0 mg/kg/injection, schedule: Q04DX003 (ip), vehicle: saline with Tween-80): 0 of 6
- survivor count (dose: 400.0 mg/kg/injection, schedule: Q04DX003 (ip), vehicle: saline with Tween-80): 0 of 6

SMILES: NN1CCCC1
- survivor count (dose: 400.0 mg/kg/injection, schedule: Q04DX003 (ip), vehicle: saline): 4 of 6

SMILES: Nc1nc(Cl)c(C=O)c(Cl)n1
- T/C (dose: 12.5 mg/kg/injection, schedule: Q01DX009 (ip), vehicle: saline with Tween-80): 125 % of control
- T/C (dose: 100.0 mg/kg/injection, schedule: Q01DX009 (ip), vehicle: saline with Tween-80): 127 % of control
- survivor count (dose: 200.0 mg/kg/injection, schedule: Q01DX009 (ip), vehicle: saline with Tween-80): 3 of 6

SMILES: CC(=O)OC1CC2C3(C)CCC4C(C)(C)CCCC4(C)C3CC(O)C2(C)C2C1=COC2OC(C)=O (centres undefined)
- survivor count (dose: 60.0 mg/kg/injection, schedule: Q01DX005 (ip), vehicle: Klucel (hydroxypropylcellulose) (HPC)): 2 of 6 and 4 of 6
- survivor count (dose: 120.0 mg/kg/injection, schedule: Q01DX005 (ip), vehicle: Klucel (hydroxypropylcellulose) (HPC)): 0 of 6
- survivor count (dose: 240.0 mg/kg/injection, schedule: Q01DX005 (ip), vehicle: Klucel (hydroxypropylcellulose) (HPC)): 0 of 6
